Out of some 31,000 sequences screened, about 1,400 (4.5%) were called active.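 Rule for the calls: active = median seed-adjusted z-score above 1 or below -1; inactive = the rest.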 This is one part of the list.
Assay: Novel Modifiers of Survival Motor Neuron (SMN) Protein: Gene Identification via Genome-wide siRNA Screen;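 note: luminescence tracks full-length SMN protein made from the SMN2 reporter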
Settings: HEK293T SMN2-luciferase reporter, siRNA knockdown, 72 h; actives lie on both sides
Method in brief: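 HEK293T cells stably expressing an SMN2 splicing/cDNA-luciferase reporter were reverse-transfected with a druggable-genome siRNA library and read by luminescence at 72 hours; hits defined by MAD score above 1.0 or below -1.0.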
With GGCAAUUACCUAUGUAAGATT against AGTR1 the median seed-adjusted z-score was inactive: 0.106. With ACAUCCGCGGCGACAUGUATT against RASD2 the median seed-adjusted z-score was inactive: 0.0673. In the case of CUGCAGAUCUUGUGACAGATT against IMPA2, the median seed-adjusted z-score is reported as inactive: 0.0513. With CCCUGUUACUGCUGCCCUATT against BZRPL1 the median seed-adjusted z-score was inactive: 0.0787. With GCGUCAUGAUGUUCACCUATT against ITGB5 the median seed-adjusted z-score was inactive: -0.00882. With GACUCGCAGAAUAAACAUATT against ISOC2 the median seed-adjusted z-score was inactive: -0.599. For CAAAUAUCCCGUACGUGUATT against HTR3A, the median seed-adjusted z-score was inactive: 0.37. With GCAUAUCCGUCUGUCAGAATT against PRC1 the median seed-adjusted z-score was inactive: -0.0195. In the case of GGUCUAUGAUAUCACUAGATT against RAB14, the median seed-adjusted z-score is reported as inactive: -0.0567. In the case of GGGAUAACCUGGAAAAGGATT against APOA1, the median seed-adjusted z-score is reported as inactive: -0.239. With GGACCAUCAUCCUACUGUATT against CCND3 the median seed-adjusted z-score was inactive: -0.965. In the case of AGCAGAUUGUUAAAAUGUATT against SAV1, the median seed-adjusted z-score is reported as inactive: 0.766. For GAGUGUACACCUUAAACAATT against HP, the median seed-adjusted z-score was inactive: 0. With CCCAGGUGCUUAGAAACAATT against TCEB3B the median seed-adjusted z-score was inactive: 0.0434. For GGAUCAUCUAUGACCGGAATT against EIF4EBP1, the median seed-adjusted z-score was inactive: -0.161. For CAGCUGGAUUGACAAGUUUTT against MFN2, the median seed-adjusted z-score was inactive: -0.0968. In the case of GCCCAUUUCAUCAACCUGATT against PRDM15, the median seed-adjusted z-score is reported as inactive: 0.258. For CAACCACAGCUGCAUGUAUTT against GABRB1, the median seed-adjusted z-score was inactive: 0.238. With GGAUCUCCUUCGAUUUAGATT against PRIM2 the median seed-adjusted z-score was inactive: -0.0161. With GAGGUUGAUUUAUACCAAUTT against SAP30 the median seed-adjusted z-score was inactive: -0.618. With CUAGUGACAAUAAAGAUUATT against GRB7 the median seed-adjusted z-score was inactive: 0.439. In the case of UCUUCUAAAUACUUCCUAATT against GJC3, the median seed-adjusted z-score is reported as inactive: -0.137. With GCAGCAUCAAUGUCUGGAATT against SLC6A8 the median seed-adjusted z-score was inactive: -0.0673. In the case of GGUAAACGCAAAGCACUGATT against MAP2K4, the median seed-adjusted z-score is reported as inactive: -0.366. In the case of GCAAGAGUUUGAUCGCUUUTT against RECK, the median seed-adjusted z-score is reported as inactive: -0.000321. For GCAUCUUGGGUGUUGACAATT against NARS2, the median seed-adjusted z-score was inactive: 0.505. In the case of CAUUGAGAAUAAUAACAGATT against PPP3CA, the median seed-adjusted z-score is reported as inactive: 0.74. In the case of GCGAGGAAGUGGGAAUUCATT against RGS6, the median seed-adjusted z-score is reported as inactive: -0.904. With GUUCCAAGGUGGAUGCGAATT against ABCC1 the median seed-adjusted z-score was inactive: 0. With CCUUUACCUUUAGACGUAUTT against RBM45 the median seed-adjusted z-score was inactive: -0.234. In the case of GAUAUUCAUUUGUUCGGUUTT against TIA1, the median seed-adjusted z-score is reported as inactive: -0.188. For CGAGGACAUUGAUAACGAATT against CCNB2, the median seed-adjusted z-score was inactive: 0.0328. For CAAUCUUCUUUGAUGUCAATT against GDE1, the median seed-adjusted z-score was inactive: -0.256. With UGCUCUGCGUAGGACCCUATT against FFAR1 the median seed-adjusted z-score was inactive: 0.248. In the case of CAUCCUGUAUAAGUACUAUTT against RNF216, the median seed-adjusted z-score is reported as inactive: -0.246. For CACGAAUCCUGGUUGAUCATT against ELAVL4, the median seed-adjusted z-score was inactive: -0.0523. In the case of GCUCUUCGAGAGAACCUGUTT against TUBG1, the median seed-adjusted z-score is reported as inactive: 0.618. In the case of CAAUAUGAAUGGUAUUGCATT against TEC, the median seed-adjusted z-score is reported as inactive: 0.258. In the case of CAUCCGCACUUUCAAGGGATT against LSM11, the median seed-adjusted z-score is reported as inactive: -0.873. For GCCUCAAGCUCGAAUGUGATT against AES, the median seed-adjusted z-score was inactive: -0.478. In the case of CUUCUUCCGUGACUUCUCATT against COL18A1, the median seed-adjusted z-score is reported as inactive: -0.441. For GCUGGUUAGGAACCGCUCATT against ZNF579, the median seed-adjusted z-score was inactive: -0.0604. In the case of GGAAGGAGUUUGUGAGCGATT against ARL10, the median seed-adjusted z-score is reported as inactive: -0.455. For UGCAGGUCAUUAACAAUUATT against RNASE2, the median seed-adjusted z-score was inactive: 0.283. For GUAAAUCAAUGGUGGAUGATT against RAP2C, the median seed-adjusted z-score was inactive: 0.443. With CUUGGAUGAUGGCAAGACATT against TCEB2 the median seed-adjusted z-score was active: 1.28. With GGACGAGAUAUAACAUAUUTT against ACTR3 the median seed-adjusted z-score was inactive: -0.7. With GGUGCGUGCUAGUGCAAUUTT against C1QL3 the median seed-adjusted z-score was inactive: -0.276. In the case of CGCUGCACGUCUACCAGUATT against KIF26A, the median seed-adjusted z-score is reported as inactive: -0.428. With CGUCGAAUGUUUAAAGUCUTT against ITFG1 the median seed-adjusted z-score was inactive: -0.417. For GCACUGUGAAGAUCGAGUUTT against MATN3, the median seed-adjusted z-score was inactive: 0.0972. In the case of GGAUCGAAGUUGUAAUCGUTT against DOCK7, the median seed-adjusted z-score is reported as inactive: 0.23. With GUAAUAGAGAGUAAUCGAATT against MYO9A the median seed-adjusted z-score was inactive: -0.567. With CGUCUACUCGGAGAGCAAATT against MC3R the median seed-adjusted z-score was inactive: 0.424.

Source: PubChem BioAssay AID1347426 (Functional Genomics Laboratory (NCATS/FGL), 2020)
